Measurements as given in article PMC11414077, “Novel thiazole-based cyanoacrylamide derivatives: DNA cleavage, DNA/BSA binding properties and their anticancer behaviour against colon and breast cancer cells” (BMC Chemistry, 2024).

Columns and labels:
CT-DNA-EtBr = experiment: Ethidium bromide quenching (displacement) assay; type: binding, calf; settings: Scatchard method
Description: EtBr is a conventional intercalator whose fluorescence intensity intensifies in response to CT-DNA interaction. Solution of CT-DNA-EtBr with final concentrations of EtBr (20 µM) and CT-DNA (100 µM) in Tris–HCl buffer solution (pH = 7.1) was prepared, then compounds were solubilized in DMSO, added to the prepared solution to attain a range of concentration (0–160 µM) and (0–80 µM) for 3b and 3c, respectively. Then, the mixtures were incubated 3 min after each addition and the emission spectra (540–710 nm) were recorded using an excitation wavelength of 520 nm.
The interaction mode between compound and CT-DNA can be discriminated through fluorescence spectroscopy with the EtBr–CT-DNA system. EtBr is a classic indicator of intercalation where an intense fluorescence signal is emitted from the EtBr-CT-DNA system through intercalation of EtBr between adjacent DNA base pairs with no obvious signal for unaccompanied EtBr. […] F0/F= 1+KsvQ= 1+kqτ0[Q] where F0 and F are fluorescence intensities in the absence and presence of the compound used for quenching, respectively; KSV is a linear Stern–Volmer quenching constant; [Q] is the concentration of the quenching compound and τ0 is the fluorescence lifetime of the fluorophore (10^−8 s) in absence of the compound responsible for quenching. […] Also, the binding constant (Kb) and the number of binding sites (n) were determined by the Scatchard method. […]

CT-DNA = CT-DNA UV-Visible absorption spectrophotometric titration; type: binding, calf; settings: on adding CT-DNA 0–60 μM
Description: CT-DNA stock solution was prepared by dissolving CT-DNA in Tris/NaCl buffer (pH 7.1). Then, it was stored at 4°C and was manipulated within 4 days of preparation. The concentration was estimated by applying the equation C=A260nm/ε×b where C is the concentration of DNA solution, A is the absorbance at wavelength 260 nm, b is the path length and ε is the molar extinction coefficient of DNA that equals 6600 M^−1 cm^−1. The purity also was calculated using the absorbance ratio at wavelength 260 and 280 respectively, which was 1.8 indicating free DNA from protein contamination. Stock solutions of compounds 3b and 3c were prepared by dissolving in DMSO.
The interaction between the selected compounds (3b and 3c) and CT-DNA was assessed through the spectrophotometric titration method. In brief, a fixed concentration of compounds (25 μM) was mixed with an accumulative addition of CT-DNA (0–60 μM) at room temperature with a constant DMSO percentage of 5%. After 5 min from each addition, the UV–Vis absorption spectrum (250–650 nm) was recorded. The hyper/hypochromic percentage change at the characteristic peak of 3b and 3c was assessed using the formula: H%=Afree-Abound/Abound×100 . […] Standard Gibbs free energy (ΔG°) was calculated using the equation ΔG° = − RTlnKb (where T is the temperature, 298 K; R is the universal gas constant, 8.314 J K^−1 mol^−1).

| SMILES | n (binding site numbers) (CT-DNA-EtBr) | blue shift (CT-DNA) |
| --- | --- | --- |
| N#CC(=Cc1cn(-c2ccccc2)nc1-c1cccnc1)C(=O)Nc1nccs1 [Compound 3c, 2-Cyano-3-(1-phenyl-3-(pyridin-3-yl)-1H-pyrazol-4-yl)-N-(thiazol-2-yl)acrylamide] | 0.90 | ~ 1 nm |
| N#CC(=Cc1cn(-c2ccccc2)nc1-c1cccs1)C(=O)Nc1nccs1 [Compound 3b, 2-Cyano-3-(1-phenyl-3-(thiophen-2-yl)-1H-pyrazol-4-yl)-N-(thiazol-2-yl)acrylamide] | 0.99 | ~ 1 nm |
